The values that follow come from patent US6875759B1, “Substituted guanidines and the use thereof” (Kadmus Pharmaceuticals, priority 1999, dated 2005).

Holding throughout (type): cell-based
Assay [1] deals with breast cancer cell line HS578T. Nature of the assay: In vitro cytotoxicity, MTS assay, breast cancer cells. The conditions noted are these: Homo sapiens, Hs-578T, 168 h, 7 days exposure, dose causing death to 50% of cells, read-out: Cell Survival ED 50 Breast. As for the experimental part:
(§1) To date, 31 different analogues in the series have been tested for their cytotoxicity against human prostate, pancreas and breast cancer cells grown in culture. In these experiments, cells were seeded at 400 cells per well 24 hours prior to addition of the test compound. Cells were grown at 37° C. in a humidified atmosphere of 95% air, 5% CO2 for 7 days with daily media changes. Cytotoxicity was assessed using the CellTiter 96 Aqueous Proliferation Assay (Promega, Madison, Wis.). In this assay the conversion of MTS-tetrazolium by metabolically active cells creates a stable colored compound, that can be measured spectrophotometrically at 490 nm.
For orientation: Tetrazolium assays rely on reduction of a dye to a coloured formazan, in cell work by metabolically active cells.

Assay [2] concerns pancreas cancer cell line HS766T. Briefly: In vitro cytotoxicity, MTS assay, pancreas cancer cells. The conditions noted are these: Homo sapiens, 168 h, 7 days exposure, dose causing death to 50% of cells, read-out: Cell Survival ED 50 Pancreas. On the procedure: as §1
Assay [3] concerns hormone-independent prostate cancer cell line DU145. Briefly: In vitro cytotoxicity, MTS (CellTiter 96 Aqueous Proliferation Assay), prostate cancer cells. The conditions noted are these: Homo sapiens, DU-145, 168 h, 7 days exposure, dose causing death to 50% of cells, read-out: Cell Survival ED 50 Prostate. On the procedure: FIG. 1 is a graph which compares the effects of the compound of Example 8 on normal human endothelial cells (AH-9) and human prostate cancer cells (DU145). Cells were exposed to the compound for seven days at the concentrations indicated. Cytotoxicity was assessed using the MTS assay.
as §1
In a separate experiment (FIG. 1), normal human endothelial cells (AH-9) and human prostate cancer cells (DU145) were exposed to increasing concentrations of the compound of Example 8 for seven days.

In the case of `C(=C\c1ccccc1)/CN1CCN(C(c2ccccc2)c2ccccc2)CC1` [Cinnezarine, cinnarizine, reference compound], the EC50 in assay [1] turned out to be 2800 nM; in assay [2], 2200 nM; in assay [3], 8500 nM.
